For at least one compound, name, drawing or mass did not settle the structure.
Tested on: Cell membranes (THP-1)
Test: Radioligand Competition Binding Assay (RCB Assay) with Example 7T on THP-1 membranes pre-incubated with Example 11, with or without photolysis
Conditions: THP-1 membranes incubated with Example 11 at approximately 3 times the Kd concentration, unphotolysed (control on ice); RCB Assay using Example 7T

[3H]CC([3H])CC(C(N)=O)C(CC(C)C)C(=O)NC1CCCCN(Cc2cccc(Oc3ccccc3)c2)C1=O (stereo not shown) [Example 7T]
bmax: 938 fmol/mg membranes
